From PMC5996148
This is one part of the list.

How the values were obtained:
Assay in all cases: protein microarray (ProtoArray v5.0), streptavidin-Alexa Fluor 647
Conditions in all cases: 3'-biotin; 20 mM Tris (pH 7.5), 5 mM MgCl2, 100 mM KCl, 0.1% Tween-20, A/T-rich and random oligonucleotide blockers; temperature not stated; high values mean tight binding
DPP3 (human) = system: DPP3 (human)
DSCR4 (human) = system: DSCR4 (human)
DTNB (human) = system: DTNB (human)
DTNBP1 (human) = system: DTNBP1 (human)
DTYMK (human) = system: DTYMK (human)
DUSP22 (human) = system: DUSP22 (human)
DUSP6 (human) = system: DUSP6 (human)
DUT (human) = system: DUT (human)
DYDC1 (human) = system: DYDC1 (human)
DYNC1LI2 (human) = system: DYNC1LI2 (human)

GGTGACAGGGGTATGGGGAGGGG [G4-2 biotinylated (Ct1)]
binding signal (DPP3 (human)): -0.389 z-score | binding signal (DSCR4 (human)): -0.38 z-score | binding signal (DTNB (human)): -0.384 z-score | binding signal (DTNBP1 (human)): -0.381 z-score | binding signal (DTYMK (human)): -0.394 z-score | binding signal (DUSP22 (human)): -0.383 z-score | binding signal (DUSP6 (human)): -0.402 z-score | binding signal (DUT (human)): -0.372 z-score | binding signal (DYDC1 (human)): -0.397 z-score | binding signal (DYNC1LI2 (human)): -0.396 z-score
